Test results as given in the supplement of paper PMC11348887.
Several values for one entry are separate records, joined by “and”; a condition that tells them apart may be missing. Equal entries are not always repeated. Structures can show the parent of a compound that is named as a salt. Some of the results follow. Small differences around the control level are noise.

Assays:
Conditions in all cases: 5 µM; treatment: days 7-14 after plating, readout day 21
[1] = test system: hPSC-derived cortical neurons (WA09); assay: nucleus area z-score vs screen plate; higher = larger nuclei (more mature)
[2] = test system: hPSC-derived cortical neurons (WA09); assay: total neurite length per nucleus (MAP2) z-score; higher = more neurite growth
[3] = test system: hPSC-derived cortical neurons (WA09); assay: nucleus roundness z-score vs screen plate; higher = rounder nuclei (more mature)
[4] = test system: hPSC-derived cortical neurons (WA09); assay: KCl-induced FOS+/EGR-1+ double-positive nuclei fraction z-score (KCl minus unstimulated); higher = stronger activity-induced IEG response

Row | SMILES | nucleus area z-score [1] | total neurite length per nucleus (z-score) [2] | nucleus roundness z-score [3] | KCl-induced FOS+/EGR-1+ double-positive nuclei fraction z-score [4]
1 | NCCOCCOCCNC(=O)Cc1ccc(Nc2nc(NCc3ccc(F)cc3)nc(NCC3CCCCC3)n2)cc1 [AP-III-a4 (ENOblock)] | -0.102 | -2.91 | -4.6 | -1.09
2 | CC(C)C(=O)Oc1ccc(CO)cc1[C@H](CCN(C(C)C)C(C)C)c1ccccc1 [Fesoterodine Fumarate] | -0.817 | -0.0238 | 0.0734 | -0.773
3 | O=c1[nH]c(C2CCCN2)nc2c1oc1ccc(Cl)cc12 (centres undefined) | -0.639 | -1.19 | -0.776 | 0.0705
4 | CN(C)CC(=O)Nc1ccc2[nH]c(=O)c3ccccc3c2c1 |  |  | -0.279 and -0.176 | 
5 | COc1cc2c(cc1OC)CC(=O)N(CCCN(C)C[C@H]1Cc3cc(OC)c(OC)cc31)CC2 [Ivabradine HCl] | -0.391 | 0.683 | 1.14 | -0.367
6 | C[C@@H]1CCN(C(=O)CC#N)C[C@@H]1N(C)c1ncnc2[nH]ccc12 | 1.27 and 1.84 | -0.436 and -0.717 |  | 
7 | CN(c1ncccc1CNc1nc(Nc2ccc3c(c2)CC(=O)N3)ncc1C(F)(F)F)S(C)(=O)=O |  |  |  | -0.657 and -1.1 and -1.02
8 | N=C(N)N/N=C/c1c(Cl)cccc1Cl [Guanabenz Acetate] | -1.01 | -0.286 | -1.16 | 0.582
9 | CC(C)(C)C(=O)Nc1ccc2c(c1)C(=O)C(=O)c1ccccc1-2 | 0.677 | 0.0216 | 1.19 | 0.322
10 | O=C(c1ccccc1)c1ccc2nc(NC(=O)c3csc(C4CCN(c5ncnc6ccsc56)CC4)n3)[nH]c2c1 | -0.375 | 0.887 | -0.964 | 0.436
11 | CN(C/C=C/C#CC(C)(C)C)Cc1cccc2ccccc12 [Terbinafine] | -0.243 | -0.31 | -0.0225 | -0.127
12 | CCCC[S+]([O-])c1sc2nc(-c3cccs3)cc(-c3ccccc3)c2c1N (centres undefined) | -0.493 | -0.224 | -0.44 | 1.57
13 | Nc1ccn([C@@H]2O[C@H](CO)[C@@H](O)[C@H]2O)c(=O)n1 [Cytidine] | 0.378 | -0.0602 | 0.6 | 0.268
14 | Cn1ncnc1[C@H]1c2n[nH]c(=O)c3cc(F)cc(c23)N[C@@H]1c1ccc(F)cc1 | -0.529 | -0.157 | 0.493 | -0.381
15 | C=CCn1c(=O)c2cnc(Nc3ccc(N4CCN(C)CC4)cc3)nc2n1-c1cccc(C(C)(C)O)n1 | -0.103 | 0.104 | 0.0173 | -0.305
16 | COC(=O)Nc1ccc(-c2nc(N3CCOCC3)c3cnn(C4CCN(C(=O)OC)CC4)c3n2)cc1 | -0.335 | 1.12 | -0.781 | -0.675

Row | SMILES | nucleus area z-score [1] | total neurite length per nucleus (z-score) [2] | nucleus roundness z-score [3] | KCl-induced FOS+/EGR-1+ double-positive nuclei fraction z-score [4]
17 | O=C1c2cccc(O)c2C(=O)c2c(O)cccc21 [Danthron] | 0.551 | -0.0464 | -0.0161 | 1.04
18 | Cc1ccc(NC(=O)c2ccc(CN3CC[C@H](N(C)C)C3)c(C(F)(F)F)c2)cc1Nc1nccc(-c2cncnc2)n1 [Bafetinib (INNO-406)] | -0.188 | -0.166 | 0.0917 | 0.021
19 | CCN1CCN(Cc2ccc(C(=O)Nc3ccc(C)c(Oc4ccc5c(c4)CC(=O)N5)c3)cc2C(F)(F)F)CC1 | -0.79 | -1.19 | -0.492 | 0.179
20 | CN1CCC(=C2c3ccccc3CCc3sccc32)CC1 [Pizotifen Malate] | -0.222 | 0.0183 | -0.354 | -1.05
21 | Cc1cc(N2CCN([C@@H]3CN[C@H](C(=O)N4CCSC4)C3)CC2)n(-c2ccccc2)n1 [Teneligliptin hydrobromide] | 0.209 | 0.682 | 0.392 | -0.124
22 | CC[C@@H]1C(=O)N(C)c2cnc(Nc3ccc(C(=O)NC4CCN(C)CC4)cc3OC)nc2N1C1CCCC1 | -5.07 | -1.28 | -3.16 | -0.658
23 | C=CCc1ccc(O)c(-c2ccc(O)c(CC=C)c2)c1 [Honokiol] | 0.461 | 0.189 | -0.39 | 0.0039
24 | CC(O)(P(=O)(O)O)P(=O)(O)O [Etidronate] | -2.48 | -0.287 | 0.0244 | -0.943
25 | O=C(NO)c1cccc(C(=O)NCCc2ccccc2)c1 | 0.045 | 0.355 | 0.126 | 0.631
26 | CC(=O)O[C@H]1Cc2ccccc2N(C(N)=O)c2ccccc21 [Eslicarbazepine Acetate] | 0.122 | 0.672 | 0.438 | -0.0801
27 | Cc1cc(C)nc(SCC(=O)Nc2ncc(Cc3cccc4ccccc34)s2)n1 | 0.269 | 0.516 | 0.483 | 0.638
28 | COc1cc(C2Oc3cc([C@H]4Oc5cc(O)cc(O)c5C(=O)[C@@H]4O)ccc3OC2CO)ccc1O (some centres undefined) [Silymarin] | 2.27 | -1.52 | -1.08 | -0.67
29 | O=C(N/N=C/c1ccc([N+](=O)[O-])o1)c1ccc(O)cc1 [Nifuroxazide] | 1.36 | -0.219 | 0.0132 | 0.534
30 | O=C(NC1CCNCC1)c1n[nH]cc1NC(=O)c1c(Cl)cccc1Cl | -16.1 and -15.3 | -6.63 and -5.68 |  | 
31 | O=C(O)C1(C(=O)O)CCC1.[NH2-].[NH2-].[Pt+2] [Carboplatin] | -0.0278 | -0.0195 | -0.133 | -0.553

Random excerpt: two records from the list
Row | SMILES | nucleus area z-score [1] | total neurite length per nucleus (z-score) [2] | nucleus roundness z-score [3] | KCl-induced FOS+/EGR-1+ double-positive nuclei fraction z-score [4]
21 | Cc1cc(N2CCN([C@@H]3CN[C@H](C(=O)N4CCSC4)C3)CC2)n(-c2ccccc2)n1 [Teneligliptin hydrobromide] | 0.209 | 0.682 | 0.392 | -0.124
28 | COc1cc(C2Oc3cc([C@H]4Oc5cc(O)cc(O)c5C(=O)[C@@H]4O)ccc3OC2CO)ccc1O (some centres undefined) [Silymarin] | 2.27 | -1.52 | -1.08 | -0.67
